Measured values as given in PubChem BioAssay AID529 (NMMLSC, 2006).
Among all 24,000 compounds or so, about 50 (0.2%) were called active. This list was built around the results that the source calls inconclusive (neither active nor inactive); the mix of calls is not that of the screen.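 How the source made its calls: active means inhibition above 50%; inconclusive means compound itself fluorescent, judged against control cell fluorescence; inactive means the rest.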

Amino acid sequences for entries named in this document (tags omitted).
UniProt P13612, whole entry, looked up: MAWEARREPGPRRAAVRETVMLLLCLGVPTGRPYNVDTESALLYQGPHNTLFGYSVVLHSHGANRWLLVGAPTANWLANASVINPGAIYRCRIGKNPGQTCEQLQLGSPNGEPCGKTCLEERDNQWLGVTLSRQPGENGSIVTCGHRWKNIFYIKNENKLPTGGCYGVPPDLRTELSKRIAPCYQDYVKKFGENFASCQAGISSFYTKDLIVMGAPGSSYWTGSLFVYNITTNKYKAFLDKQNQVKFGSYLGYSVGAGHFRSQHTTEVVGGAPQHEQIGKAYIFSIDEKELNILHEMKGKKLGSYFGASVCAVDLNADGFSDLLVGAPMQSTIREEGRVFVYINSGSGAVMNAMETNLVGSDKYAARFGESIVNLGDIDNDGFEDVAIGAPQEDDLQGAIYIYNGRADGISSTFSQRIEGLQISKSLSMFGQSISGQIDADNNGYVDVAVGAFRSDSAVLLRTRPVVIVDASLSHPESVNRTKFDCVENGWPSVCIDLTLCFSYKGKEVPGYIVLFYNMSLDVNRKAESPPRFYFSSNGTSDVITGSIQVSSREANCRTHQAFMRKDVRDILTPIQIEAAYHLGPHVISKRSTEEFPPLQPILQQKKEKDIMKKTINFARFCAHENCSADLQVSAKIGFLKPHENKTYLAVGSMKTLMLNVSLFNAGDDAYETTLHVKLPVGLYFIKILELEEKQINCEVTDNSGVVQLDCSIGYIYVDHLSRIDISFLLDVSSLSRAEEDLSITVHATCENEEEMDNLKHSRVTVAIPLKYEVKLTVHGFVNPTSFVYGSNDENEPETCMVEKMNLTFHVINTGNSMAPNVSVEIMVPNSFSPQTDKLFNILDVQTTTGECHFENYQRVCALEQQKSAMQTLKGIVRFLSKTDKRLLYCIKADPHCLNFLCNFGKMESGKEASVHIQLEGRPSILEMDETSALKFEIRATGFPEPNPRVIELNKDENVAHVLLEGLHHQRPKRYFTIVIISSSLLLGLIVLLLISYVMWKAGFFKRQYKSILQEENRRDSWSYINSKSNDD

biological target: Integrin alpha-4 (Homo sapiens) (UniProt P13612); experiment: blockers of LDV-FITC ligand binding on VLA-4 – Jurkat cells, Mn2+ activated, primary screen (AID 529); settings: LDV-FITC binding with Mn2+, flow cytometry; hits give high values, screened at 10 µM (by protocol), 100% = Mn2+-driven binding gain fully reversed unless noted;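 on inhibition: 0% = Mn2+ stimulated cells lacking compound and 100% = ligand binding without Mn2+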

Row | SMILES | inhibition
1 | CC(=O)NC(CCS(C)(=O)=O)C(=O)Nc1nc(C)cs1 (stereo not given) | inconclusive
2 | COc1ccc(S(=O)(=O)N2CCCN(CC(=O)Nc3ccc4c(c3)OCO4)CC2)cc1 | inconclusive
3 | COc1ccc(C(C(=O)OC(C)CN(C)C)c2ccccc2)cc1 (stereo not given) | inconclusive
4 | Cc1nc2ccccc2n1CCc1nc2c3ccccc3nc(SCC(=O)NCc3ccco3)n2n1 | inconclusive
5 | COc1cc(NC(=O)c2ccc(COCC(F)(F)F)o2)cc(OC)c1OC | inactive: 10.5%
6 | CCCCN(CC)CCCNC(=O)c1cc2c(=O)n(C)c3ccccc3c2n1C | inactive: -3%
7 | CCOc1ccc(C2c3c(oc4ccccc4c3=O)C(=O)N2CCCN2CCOCC2)cc1OCC (stereo not given) | inconclusive
8 | O=C(C1CCN(S(=O)(=O)c2ccc(Br)s2)CC1)N1CCc2ccccc21 | inconclusive
9 | CCOC(=O)c1ccc2c(c1)NC(=O)C(N1CCN(c3ccc(OC)cc3)CC1)S2 (stereo not given) | inconclusive
10 | CCOCC(=O)Nc1ccc(-c2cn3cccnc3n2)cc1 | inactive: 17%
11 | C=CCSc1nnc(-c2cc(Br)ccc2N)c(=O)[nH]1 | inconclusive
12 | COc1cccc(/C=N/n2cncn2)c1OCC#N | inactive: 10%
13 | Cn1c(Cl)cnc1C1CC(=O)c2cc(Cl)ccc2O1 (stereo not given) | inconclusive
14 | CC(C)CC1NC(=O)N(CC(=O)N2CCN(S(=O)(=O)c3ccc(Cl)cc3)CC2)C1=O (stereo not given) | inactive: 0%
15 | CCOC(=O)CSC1=C(C#N)C(c2ccccc2F)C(C(C)=O)=C(C)N1 (stereo not given) | inconclusive
16 | CC(C)c1ccc(O)c(NC(=O)c2cncc(Br)c2)c1 | inconclusive
17 | COC(=O)c1cc2occc2n1CC(=O)N(C)C1CCCCC1 | inconclusive
18 | COc1ccccc1-n1c(C)nnc1SCC(N)=O | inactive: -16%
19 | Cn1c(=O)oc2cc(S(=O)(=O)NCCN3CCN(c4ccccc4F)CC3)ccc21 | inconclusive
20 | Cc1nc2ccc(S(=O)(=O)NCC(=O)NCCN3CCCCCC3)cc2s1 | inconclusive

Row | SMILES | inhibition
21 | c1ccc(Cc2nnc3sc(-c4ccco4)nn23)cc1 | inconclusive
22 | COc1ccc(N2CCN(C(=O)CN3C(=O)C4CC=CCC4C3=O)CC2)cc1 (stereo not given) | inactive: 2%
23 | Nc1cc(OC(=O)c2ccccc2Br)nn1S(=O)(=O)c1ccccc1 | inconclusive
24 | CCCCCOC(=O)CSc1nnc(-c2cc(OC)c(OC)c(OC)c2)o1 | inactive: 5%
25 | CCC(C)NC(=O)CCC(=O)Nc1ccc2nc(N3CCOCC3)cc(C)c2c1 (stereo not given) | inconclusive
26 | COC(=O)c1ccc(-c2cc(C(=O)O)c3cc4c(cc3n2)OCCO4)cc1 | inconclusive
27 | CCOC(=O)c1sc2nc3n(c(=O)c2c1C)CCC(C)CC3 (stereo not given) | inconclusive
28 | CCOc1cccc2c1OC1(C)CC2NC(=O)N1c1cccc(Cl)c1 (stereo not given) | inconclusive
29 | CCOC(=O)N1CCC(NC(=O)c2cc(C)c3c(C)nn(-c4ccccc4)c3n2)CC1 | inactive: 17%
30 | COc1ccc(OC)c(C2N(c3ccc(Cl)cc3)C(=O)C3CCCN32)c1 (stereo not given) | inactive: -6%
31 | O=C(Nc1ccc(F)cc1Cl)c1ccc2c(=O)n3c(nc2c1)CCCCC3 | inconclusive
32 | Cn1c(Cn2c(=O)sc3ccccc32)nnc1SCC(N)=O | inconclusive
33 | O=C(CSc1nc2[nH]ncc2c(=O)n1-c1ccccc1)N1CCCc2ccccc21 | inconclusive
34 | Cc1ccc(Cl)cc1N1CCN(C(=O)c2cc3c(=O)n(C)c4ccccc4c3n2C)CC1 | inactive: 5%
35 | COc1ccc(C)cc1NC(=O)C1CCCN1S(=O)(=O)c1ccc2c(c1)CCC(=O)N2 (stereo not given) | inconclusive
36 | C=C(C)C1Cc2c(C)nn(-c3nc(C)cc(C)n3)c2C1 (stereo not given) | active: 54%
37 | Cc1oc(-c2ccc(Cl)cc2)nc1CN1CCC(C(=O)NCCCN2CCOCC2)CC1 | inactive: 16%
38 | COc1cc(OC)c(NC(=O)CS(=O)(=O)Cc2nc(-c3ccc(C)cc3)oc2C)cc1Cl | inconclusive
39 | CCOC(=O)c1c(C)c(C(=O)NCCOC)c(C)n1CC | inconclusive
40 | CC#CCCCC(=O)Nc1ccc(C(=O)O)cc1 | inconclusive

Molecules shown so far that have two or more sulfur atoms (four):
Row | SMILES | inhibition
1 | CC(=O)NC(CCS(C)(=O)=O)C(=O)Nc1nc(C)cs1 (stereo not given) | inconclusive
8 | O=C(C1CCN(S(=O)(=O)c2ccc(Br)s2)CC1)N1CCc2ccccc21 | inconclusive
20 | Cc1nc2ccc(S(=O)(=O)NCC(=O)NCCN3CCCCCC3)cc2s1 | inconclusive
32 | Cn1c(Cn2c(=O)sc3ccccc32)nnc1SCC(N)=O | inconclusive

Remaining list, next part:

Row | SMILES | inhibition
41 | Cc1ccc2[nH]c3c(N4CCN(Cc5ccc6c(c5)OCO6)CC4)ncnc3c2c1 | inconclusive
42 | Cc1cc(C(=O)O)c(S(C)(=O)=O)s1 | inconclusive
43 | O=C(Cn1c(=O)oc2cc(S(=O)(=O)N3CCCC3)ccc21)NCc1ccccn1 | inactive: -12%
44 | O=C(CCNC(=O)Cn1ccc2ccccc2c1=O)NCCN1CCN(c2ccccc2F)CC1 | inconclusive
45 | Cc1cc(Br)ccc1NC(=O)CCN1C(=O)c2ccncc2C1=O | inconclusive
46 | CCOC(=O)C1=C(C)Nc2nc(C)nn2C1c1ccc(OCC)c(OC)c1 (stereo not given) | inconclusive
47 | OCc1nc(CO)n(Cc2ccccc2)n1 | inactive: -2.3% [hits give high values, 100% = Mn2+-driven binding gain fully reversed, screened at 10 µM (by protocol)]
48 | Cc1onc(-c2ccccc2Cl)c1C(=O)Nc1ccc(-n2nncc2-c2ccco2)cc1 | inconclusive
49 | COc1ccc(NC(=O)CSc2ccccn2)cc1OC | inactive: 2.5%
50 | Cc1cc2ccccc2c(=O)n1CC(=O)NCC1COc2ccccc2O1 (stereo not given) | inconclusive
51 | COc1ccc(-c2noc(CCC(=O)N3CCN(c4cc(C)ccc4C)CC3)n2)cc1 | inactive: 48%
52 | COc1ccccc1NC(=O)CN1CCN(CC(=O)Nc2ccc(Cl)c(C(F)(F)F)c2)CC1 | inconclusive
53 | CC(=O)c1ccc(N2CCN(C(=O)c3cc4c(-c5ccccc5F)nn(C)c4s3)CC2)cc1 | inconclusive
54 | COc1cc(NC(=O)CN2CCN(S(=O)(=O)c3ccc(C(C)C)cc3)CC2)cc(OC)c1 | inconclusive
55 | COc1ccccc1S(=O)Cc1ccc(C(=O)NCCc2ccc(Cl)cc2)o1 (stereo not given) | inconclusive
56 | Cc1ccccc1-c1nc(CN2CCC(C(=O)NC3CCN(Cc4ccccc4)CC3)CC2)c(C)o1 | inactive: 4.5%
57 | Cc1c(C(=O)N2CCOCC2)oc2ccc(S(=O)(=O)N3CCCC3)cc12 | inconclusive
58 | CC(=O)Nc1ccc(Cc2ccncc2)cc1 | inconclusive
59 | COc1ccc(C(=O)N[C@H]2COC(C)(C)O[C@H]2c2ccccc2)cc1 | inactive: -36%
60 | Cn1c(Cn2c(=O)sc3ccccc32)nnc1SCC(=O)NCc1ccccc1Cl | inactive: -8%
